Earlier results as cited in patent US9249466B2, “Methods and compositions for treating cancer” (Agency for Science, Technology and Research, priority 2010, dated 2016).
Read-outs that look alike come from different tables or passages of the source.

Settings: cited from earlier work

Q: What does the source list for `CO[C@H]1C[C@@H]2CC[C@@H](C)[C@@](O)(O2)C(=O)C(=O)N2CCCC[C@H]2C(=O)O[C@H]([C@H](C)C[C@@H]2CC[C@@H](O)[C@H](OC)C2)CC(=O)[C@H](C)/C=C(\C)[C@@H](O)[C@@H](OC)C(=O)[C@H](C)C[C@H](C)/C=C/C=C/C=C/1C` [rapamycin, (3S,6R,7E,9R,10R,12R,14S,15E,17E,19E,21S,23S,26R,27R,34aS)-9,10,12,13,14,21,22,23,24,25,26,27,32,33,34,34a-hexadecahydro-9,27-dihydroxy-3-[(1R)-2-[(1S,3R,4R)-4-hydroxy-3-methoxycyclohexyl]-1-methylethyl]-10,21-dimethoxy-6,8,12,14,20,26-hexamethyl-23,27-epoxy-3H-pyrido[2,1-c][1,4]-oxaazacyclohentriacontine-1,5,11,28,29(4H,6H,31H)-pentone]?
A: solubility (alcohols, halogenated hydrocarbons and dimethyl sulfoxide): soluble in alcohols; solubility (water, aliphatic hydrocarbons and diethyl ether): sparingly soluble
